Results published in the supplement of paper PMC4840960.
± gives the standard deviation of the averaged measurements. The list shows a part of the results. Baselines shift from plate to plate; read single values as rough. Square brackets hold non-standard residues; d marks the D form. Peptide text beside a SMILES is read from it. pGlu = O=C1CC[C@@H](C(=O)O)N1; Thz = O=C(O)[C@@H]1CSCN1

Test system: E18 rat cortical neuron-glia co-culture
Assay: total nuclei (DAPI) / Olig2+ nuclei (ratio); higher = more depletion of OPC/OL lineage cells
Conditions: treatment time: 8 days (DIV5-DIV13)

## C=C1/C(=C\C=C2/CCC[C@]3(C)[C@@H]([C@H](C)CCCC(C)(C)O)CC[C@@H]23)C[C@@H](O)C[C@@H]1O [Calcitriol]
1 µM
  total nuclei: 2.8
5 µM
  total nuclei: 3.4

## CN[C@@H]1[C@H](O)[C@H](NC)[C@H]2O[C@@]3(O)C(=O)C[C@@H](C)O[C@H]3O[C@@H]2[C@H]1O [Spectinomycin]
1 µM
  total nuclei: 2.77
5 µM
  total nuclei: 2.8

## Nc1c2c(nc3c1CCC3)CCCC2 [Amiridine]
1 µM
  total nuclei: 4.02
5 µM
  total nuclei: 5

## Clc1ccc(CO/N=C(\Cn2ccnc2)c2ccc(Cl)cc2Cl)c(Cl)c1 [Oxiconazole]
1 µM
  total nuclei: 4.02
5 µM
  total nuclei: > 40

## COc1cc(C(=O)NS(=O)(=O)c2ccccc2C)ccc1Cc1cn(C)c2ccc(NC(=O)OC3CCCC3)cc12 [Zafirlukast]
1 µM
  total nuclei: 2.71
5 µM
  total nuclei: 5

## CCCN(CCC)S(=O)(=O)c1ccc(C(=O)O)cc1 [Probenecid]
1 µM
  total nuclei: 2.69
5 µM
  total nuclei: 2.7

## CC[C@]1(O)C[C@H]2CN(CCc3c([nH]c4ccccc34)[C@@](C(=O)OC)(c3cc4c(cc3OC)N(C=O)[C@H]3[C@@](O)(C(=O)OC)[C@H](OC(C)=O)[C@]5(CC)C=CCN6CC[C@]43[C@@H]65)C2)C1 [Vincristine]
1 µM
  total nuclei: > 40
5 µM
  total nuclei: > 40

## COC(=O)C1=C(C)NC(C)=C(C(=O)OC)C1c1ccccc1[N+](=O)[O-] [Nifedipine]
1 µM
  total nuclei: 4.01
5 µM
  total nuclei: 7.7

## CNNCc1ccc(C(=O)NC(C)C)cc1 [Procarbazine]
1 µM
  total nuclei: 3.2
5 µM
  total nuclei: 3.1

## CC(C)(C(=O)O)c1ccc(C(O)CCCN2CCC(C(O)(c3ccccc3)c3ccccc3)CC2)cc1 (centres undefined) [Fexofenadine]
1 µM
  total nuclei: 4.49
5 µM
  total nuclei: 4.3

## O=C(CCNNC(=O)c1ccncc1)NCc1ccccc1 [Nialamide]
1 µM
  total nuclei: 2.82
5 µM
  total nuclei: 2.8

## CN(C)CCCSc1ccccc1NC(=O)/C=C/c1ccccc1 [Cinanserin]
1 µM
  total nuclei: 3.26
5 µM
  total nuclei: 3.6

## Cc1[nH]c(=O)c(C#N)cc1-c1ccncc1 [Milrinone]
1 µM
  total nuclei: 2.92
5 µM
  total nuclei: 3.3

## CC1(C)O[C@@H]2C[C@H]3[C@@H]4C[C@H](F)C5=CC(=O)C=C[C@]5(C)[C@@]4(F)[C@@H](O)C[C@]3(C)[C@]2(C(=O)CO)O1 [Fluocinolone Acetonide]
1 µM
  total nuclei: 3.34
5 µM
  total nuclei: 3.5

## CC(C)NCC(O)c1ccc(NS(C)(=O)=O)cc1 (centres undefined) [Sotalol]
1 µM
  total nuclei: 5.2
5 µM
  total nuclei: 4.1

## CNCCCC12CCC(c3ccccc31)c1ccccc12 [Maprotiline]
1 µM
  total nuclei: 3.62
5 µM
  total nuclei: 5.5

## C[C@H](CCC(=O)O)[C@H]1CC[C@H]2[C@@H]3C(=O)C[C@@H]4CC(=O)CC[C@]4(C)[C@H]3CC(=O)[C@]12C [Dehydrocholic Acid]
1 µM
  total nuclei: 3.06
5 µM
  total nuclei: 2.8

## NS(=O)(=O)c1cc2c(cc1C(F)(F)F)NC(Cc1ccccc1)NS2(=O)=O (centres undefined) [Bendroflumethiazide]
1 µM
  total nuclei: 2.52
5 µM
  total nuclei: 2.3

## CCCc1nc(C(C)(C)O)c(C(=O)O)n1Cc1ccc(-c2ccccc2-c2nnn[nH]2)cc1 [Olmesartan]
1 µM
  total nuclei: 4.71
5 µM
  total nuclei: 4.2

## C=CC[C@@H]1/C=C(\C)C[C@H](C)C[C@H](OC)[C@H]2O[C@@](O)(C(=O)C(=O)N3CCCC[C@H]3C(=O)O[C@H](/C(C)=C/[C@@H]3CC[C@@H](O)[C@H](OC)C3)[C@H](C)[C@@H](O)CC1=O)[C@H](C)C[C@@H]2OC [Tacrolimus]
1 µM
  total nuclei: 3.13
5 µM
  total nuclei: 3.5

## C/C=C1\[C@H]2C=C(C)C[C@]1(N)c1ccc(=O)[nH]c1C2 [Huperzine A]
1 µM
  total nuclei: 3.68
5 µM
  total nuclei: 3.6

## CCOC(=O)[C@H](CCc1ccccc1)N[C@H]1CCc2ccccc2N(CC(=O)O)C1=O [Benazepril]
1 µM
  total nuclei: 3.01
5 µM
  total nuclei: 3

## C[C@]12CCC(=O)C=C1CC[C@@H]1[C@@H]2CC[C@@]2(C)[C@H]1CC[C@]2(O)C(=O)CO [Cortodoxone]
1 µM
  total nuclei: 2.7
5 µM
  total nuclei: 2.8

## COc1ccc(-c2cc(=O)c3c(OC)c(OC)c(OC)c(OC)c3o2)cc1OC [Nobiletin]
1 µM
  total nuclei: 6.78
5 µM
  total nuclei: 7

## CC(=O)O[C@H]1C[C@@H]2CC[C@@H]3[C@H](CC[C@@]4(C)[C@H]3C[C@H]([N+]3(C)CCCCC3)[C@@H]4OC(C)=O)[C@@]2(C)C[C@@H]1N1CCCCC1 [Vecuronium Bromide]
1 µM
  total nuclei: 2.88
5 µM
  total nuclei: 2.9

## CN(C)CCOC(c1ccc(Cl)cc1)c1ccccn1 (centres undefined) [Carbinoxamine]
1 µM
  total nuclei: 2.85
5 µM
  total nuclei: 3

## C[C@]12C=CC(=O)C=C1CC[C@@H]1[C@@H]2[C@@H](O)C[C@@]2(C)[C@H]1CC[C@]2(O)C(=O)CO [Prednisolone]
1 µM
  total nuclei: 3.9
5 µM
  total nuclei: 4.2

## CC(CN1c2ccccc2Sc2ccccc21)N(C)C (centres undefined) [Promethazine]
1 µM
  total nuclei: 3
5 µM
  total nuclei: 4.7

## CN1CCN2c3ncccc3Cc3ccccc3C2C1 (centres undefined) [Remergil]
1 µM
  total nuclei: 2.3
5 µM
  total nuclei: 2.3

## Oc1ccc(/C=C/c2cc(O)cc(O)c2)cc1 [Resveratrol]
1 µM
  total nuclei: 3.7
5 µM
  total nuclei: 3.2

## CC(C)Cc1ccc(C(C)C(=O)O)cc1 (centres undefined) [Ibuprofen]
1 µM
  total nuclei: 3.64
5 µM
  total nuclei: 3.7

## Cc1noc(NS(=O)(=O)c2ccc(N)cc2)c1C [Sulfisoxazole]
1 µM
  total nuclei: 2.65
5 µM
  total nuclei: 2.8

## c1cnc(N2CCN(Cc3ccc4c(c3)OCO4)CC2)nc1 [Piribedil]
1 µM
  total nuclei: 3.62
5 µM
  total nuclei: 3.5

## CC(=O)CC(c1ccccc1)c1c(O)c2ccccc2oc1=O (centres undefined) [Warfarin]
1 µM
  total nuclei: 3.95
5 µM
  total nuclei: 4

## O=C(O)CCc1nc(-c2ccccc2)c(-c2ccccc2)o1 [Oxaprozin]
1 µM
  total nuclei: 2.88
5 µM
  total nuclei: 2.9

## CNC(=C[N+](=O)[O-])NCCSCc1csc(CN(C)C)n1 [Nizatidine]
1 µM
  total nuclei: 4.95
5 µM
  total nuclei: 4.8

## COCCCOc1ccnc(C[S+]([O-])c2nc3ccccc3[nH]2)c1C (centres undefined) [Rabeprazole]
1 µM
  total nuclei: 4.15
5 µM
  total nuclei: 5.2

## CCC(=O)NS(=O)(=O)c1ccc(-c2c(-c3ccccc3)noc2C)cc1 [Parecoxib]
1 µM
  total nuclei: 3.6
5 µM
  total nuclei: 4.2

## O=c1[nH]cnc2c1ncn2[C@H]1CC[C@@H](CO)O1 [2',3'-Dideoxyinosine]
1 µM
  total nuclei: 3.03
5 µM
  total nuclei: 3.3

## CC1(C)S[C@@H]2[C@H](NC(=O)COc3ccccc3)C(=O)N2[C@H]1C(=O)O [Penicillin V]
1 µM
  total nuclei: 4.1
5 µM
  total nuclei: 4.3

## CNCCCCOc1ccccc1Cc1ccccc1 [Bifemelane]
1 µM
  total nuclei: 4.54
5 µM
  total nuclei: 5.6

## CN/C(=N\CCSCc1nc[nH]c1C)NC#N [Cimetidine]
1 µM
  total nuclei: 3.69
5 µM
  total nuclei: 3.7

## O=C1CC[C@@H](C(=O)N2CSC[C@H]2C(=O)O)N1 [Pidotimod] ([pGlu]-[Thz]-OH)
1 µM
  total nuclei: 3.69
5 µM
  total nuclei: 3.9

## NC(=O)N1c2ccccc2C=Cc2ccccc21 [Carbamazepine]
1 µM
  total nuclei: 2.32
5 µM
  total nuclei: 2.4

## CC(C)(C)NCC(O)COc1cccc2c1CC(O)C(O)C2 (centres undefined) [Nadolol]
1 µM
  total nuclei: 3.72
5 µM
  total nuclei: 3.4

## CC=CC(=O)N(CC)c1ccccc1C [Crotamiton]
1 µM
  total nuclei: 3.8
5 µM
  total nuclei: > 40

## CC(Oc1c(Cl)cccc1Cl)C1=NCCN1 (centres undefined) [lofexidine]
1 µM
  total nuclei: 2.87
5 µM
  total nuclei: 2.8

## CN1CCC(=C2c3ccccc3C=Cc3ccccc32)CC1 [Cyproheptadine]
1 µM
  total nuclei: 2.9
5 µM
  total nuclei: 3.2

## COc1cc2nc(N3CCN(C(=O)C4CCCO4)CC3)nc(N)c2cc1OC (centres undefined) [Terazosin]
1 µM
  total nuclei: 4.72 ± 1.7
5 µM
  total nuclei: 4.15 ± 1.3

## Cc1cccc(CN2CCN(C(c3ccccc3)c3ccc(Cl)cc3)CC2)c1 (centres undefined) [Meclizine]
1 µM
  total nuclei: 5.54
5 µM
  total nuclei: 33.8

## CCN(CC)CCOC(=O)C1(C2CCCCC2)CCCCC1 [Dicyclomine]
1 µM
  total nuclei: 3.99
5 µM
  total nuclei: 4.3

## C[C@H]1O[C@H](O[C@H]2[C@H](O)[C@@H](O)[C@@H](O[C@H]3[C@H](O)[C@@H](O)C(O)O[C@@H]3CO)O[C@@H]2CO)[C@H](O)[C@@H](O)[C@@H]1N[C@H]1C=C(CO)[C@@H](O)[C@H](O)[C@H]1O (some centres undefined) [Acarbose]
1 µM
  total nuclei: 3
5 µM
  total nuclei: 2.9

## COC(=O)[C@H](c1ccccc1Cl)N1CCc2sccc2C1 [Clopidogrel]
1 µM
  total nuclei: 3.8
5 µM
  total nuclei: 3.7

## C[C@H]1[C@H](OC(=O)CCC(=O)O)O[C@@H]2O[C@@]3(C)CC[C@H]4[C@H](C)CC[C@@H]1[C@@]24OO3 [Artesunate]
1 µM
  total nuclei: 4.12
5 µM
  total nuclei: 13.1

## C#C[C@]1(O)CC[C@H]2[C@@H]3[C@H](C)CC4=C(CCC(=O)C4)[C@H]3CC[C@@]21C [Tibolone]
1 µM
  total nuclei: 2.73
5 µM
  total nuclei: 2.8

## CC(C)C(=O)Nc1ccc([N+](=O)[O-])c(C(F)(F)F)c1 [Flutamide]
1 µM
  total nuclei: 4.18
5 µM
  total nuclei: 4.3

## COc1cc(C)c(/C=C/C(C)=C/C=C/C(C)=C/C(=O)O)c(C)c1C [Acitretin]
1 µM
  total nuclei: 3.88
5 µM
  total nuclei: 36.6

## C#C[C@]1(O)CC[C@H]2[C@@H]3CCC4=CC(=O)CC[C@@H]4[C@H]3CC[C@@]21C [Norethindrone]
1 µM
  total nuclei: 2.82
5 µM
  total nuclei: 3

## CCCC(=O)Nc1ccc(OCC(O)CNC(C)C)c(C(C)=O)c1 (centres undefined) [Acebutolol]
1 µM
  total nuclei: 2.89
5 µM
  total nuclei: 2.8

## CO[C@H]1/C=C/O[C@@]2(C)Oc3c(C)c(O)c4c(c3C2=O)C2=NC3(CCN(CC(C)C)CC3)NC2=C(NC(=O)/C(C)=C\C=C\[C@H](C)[C@H](O)[C@@H](C)[C@@H](O)[C@@H](C)[C@H](OC(C)=O)[C@@H]1C)C4=O [Rifabutin]
1 µM
  total nuclei: 3.98 ± 1.4
5 µM
  total nuclei: 3.85 ± 0.92

## C[C@@H](O)[C@H]1C(=O)N2C(C(=O)O)=C(S[C@@H]3CN[C@H](C(=O)N(C)C)C3)[C@H](C)[C@H]12 [Meropenem]
1 µM
  total nuclei: 3.89
5 µM
  total nuclei: 4.3

## COC(=O)C1=C(C)NC(C)=C(C(=O)OC2CCCN(Cc3ccccc3)C2)C1c1cccc([N+](=O)[O-])c1 (centres undefined) [Benidipine]
1 µM
  total nuclei: 5.21
5 µM
  total nuclei: 35.9

## CC(Cc1ccccc1)(NC(=O)CN)c1ccccc1 (centres undefined) [Remacemide]
1 µM
  total nuclei: 2.64
5 µM
  total nuclei: 2.7

## CC(COc1ccccc1)N(CCCl)Cc1ccccc1 (centres undefined) [Phenoxybenzamine]
1 µM
  total nuclei: 2.62
5 µM
  total nuclei: 2.7

## Cc1occc(=O)c1O [Maltol]
1 µM
  total nuclei: 2.81
5 µM
  total nuclei: 2.9

## Nc1nc(Cl)nc2c1ncn2[C@H]1C[C@H](O)[C@@H](CO)O1 [Cladribine]
1 µM
  total nuclei: > 40
5 µM
  total nuclei: > 40

## O=C(O)c1cccnc1 [Niacin]
1 µM
  total nuclei: 4.17
5 µM
  total nuclei: 4.5
